Assay results reported in the supplement of paper PMC12823440, “Inhibitors supercharge kinase turnover through native proteolytic circuits” (Nature, 2025).
Counter-ions that a name gives are not always drawn. This is one part of the list. The calls rarely recur for the same compound in another form.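 In K562 cells expressing nanoluciferase-fused kinases, luminescence was recorded at 4 h intervals between 2 and 18 h, normalized as percent of control with DMSO at 100% and a positive control at 0%. A significant (2 sigma) signal drop marks a time point as decreased. The authors' rule for a hit is not shown and takes in more than the number of time points.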

Chains of the proteins cited; added tags and fusions are not shown. Lines headed by an entry give the natural chain unless they say otherwise; changes in a name come on top.
UniProt Q16288, whole entry, looked up: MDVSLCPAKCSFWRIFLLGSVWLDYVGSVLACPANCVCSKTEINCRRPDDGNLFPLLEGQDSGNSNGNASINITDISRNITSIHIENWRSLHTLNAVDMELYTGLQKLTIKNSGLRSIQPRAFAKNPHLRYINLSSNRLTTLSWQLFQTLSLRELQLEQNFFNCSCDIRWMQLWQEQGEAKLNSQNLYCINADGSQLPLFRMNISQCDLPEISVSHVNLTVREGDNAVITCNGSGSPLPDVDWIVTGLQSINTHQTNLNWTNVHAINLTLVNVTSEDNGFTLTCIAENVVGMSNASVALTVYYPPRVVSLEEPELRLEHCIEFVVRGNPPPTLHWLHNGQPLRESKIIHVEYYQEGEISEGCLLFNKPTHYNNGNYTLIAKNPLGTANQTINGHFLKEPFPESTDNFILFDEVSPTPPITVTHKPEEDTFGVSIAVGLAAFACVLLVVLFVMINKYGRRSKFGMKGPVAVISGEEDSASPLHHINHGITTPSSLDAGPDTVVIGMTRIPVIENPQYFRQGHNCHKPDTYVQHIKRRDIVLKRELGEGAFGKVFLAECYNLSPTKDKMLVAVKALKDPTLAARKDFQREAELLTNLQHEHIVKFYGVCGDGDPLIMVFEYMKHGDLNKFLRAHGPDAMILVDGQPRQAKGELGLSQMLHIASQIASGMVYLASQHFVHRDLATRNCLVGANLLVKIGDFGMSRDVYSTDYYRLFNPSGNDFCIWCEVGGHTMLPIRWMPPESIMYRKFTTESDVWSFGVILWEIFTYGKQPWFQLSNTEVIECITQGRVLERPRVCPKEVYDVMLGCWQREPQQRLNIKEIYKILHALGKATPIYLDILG
UniProt Q96KB5: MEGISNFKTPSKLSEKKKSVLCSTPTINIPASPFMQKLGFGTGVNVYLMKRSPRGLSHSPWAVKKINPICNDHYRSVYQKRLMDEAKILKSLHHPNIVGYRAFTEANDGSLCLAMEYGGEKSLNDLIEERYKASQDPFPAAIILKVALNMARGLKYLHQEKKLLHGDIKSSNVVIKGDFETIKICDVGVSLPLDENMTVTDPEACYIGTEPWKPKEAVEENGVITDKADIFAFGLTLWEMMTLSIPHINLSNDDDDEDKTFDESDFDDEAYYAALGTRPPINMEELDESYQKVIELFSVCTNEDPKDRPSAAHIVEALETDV
UniProt P09619, whole entry: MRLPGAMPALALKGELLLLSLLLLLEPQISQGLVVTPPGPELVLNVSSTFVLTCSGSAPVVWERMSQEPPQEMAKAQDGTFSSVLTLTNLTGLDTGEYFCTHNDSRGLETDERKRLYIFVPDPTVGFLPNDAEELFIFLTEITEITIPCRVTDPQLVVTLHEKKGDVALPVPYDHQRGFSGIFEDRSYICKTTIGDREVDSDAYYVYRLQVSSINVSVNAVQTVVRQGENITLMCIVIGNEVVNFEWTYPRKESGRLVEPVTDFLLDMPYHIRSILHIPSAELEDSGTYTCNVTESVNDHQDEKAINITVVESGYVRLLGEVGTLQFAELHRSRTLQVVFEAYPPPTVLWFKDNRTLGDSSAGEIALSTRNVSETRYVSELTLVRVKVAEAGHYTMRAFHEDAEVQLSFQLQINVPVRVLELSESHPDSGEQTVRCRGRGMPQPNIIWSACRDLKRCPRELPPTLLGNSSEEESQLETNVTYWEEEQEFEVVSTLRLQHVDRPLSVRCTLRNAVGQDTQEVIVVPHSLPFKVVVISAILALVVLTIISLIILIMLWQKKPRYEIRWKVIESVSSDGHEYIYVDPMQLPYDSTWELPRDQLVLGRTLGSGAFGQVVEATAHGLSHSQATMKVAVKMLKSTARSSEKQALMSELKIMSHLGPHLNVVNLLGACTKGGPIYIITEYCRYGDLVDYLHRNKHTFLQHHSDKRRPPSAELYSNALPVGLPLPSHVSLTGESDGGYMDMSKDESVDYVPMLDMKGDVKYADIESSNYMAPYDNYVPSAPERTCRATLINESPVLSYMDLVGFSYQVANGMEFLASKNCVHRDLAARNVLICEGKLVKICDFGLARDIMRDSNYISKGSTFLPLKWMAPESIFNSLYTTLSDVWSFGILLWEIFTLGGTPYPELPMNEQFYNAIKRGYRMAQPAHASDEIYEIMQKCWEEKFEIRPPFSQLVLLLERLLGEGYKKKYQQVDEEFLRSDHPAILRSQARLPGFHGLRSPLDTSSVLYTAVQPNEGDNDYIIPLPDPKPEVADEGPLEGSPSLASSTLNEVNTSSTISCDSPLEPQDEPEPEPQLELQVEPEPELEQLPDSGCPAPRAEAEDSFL
UniProt O15530: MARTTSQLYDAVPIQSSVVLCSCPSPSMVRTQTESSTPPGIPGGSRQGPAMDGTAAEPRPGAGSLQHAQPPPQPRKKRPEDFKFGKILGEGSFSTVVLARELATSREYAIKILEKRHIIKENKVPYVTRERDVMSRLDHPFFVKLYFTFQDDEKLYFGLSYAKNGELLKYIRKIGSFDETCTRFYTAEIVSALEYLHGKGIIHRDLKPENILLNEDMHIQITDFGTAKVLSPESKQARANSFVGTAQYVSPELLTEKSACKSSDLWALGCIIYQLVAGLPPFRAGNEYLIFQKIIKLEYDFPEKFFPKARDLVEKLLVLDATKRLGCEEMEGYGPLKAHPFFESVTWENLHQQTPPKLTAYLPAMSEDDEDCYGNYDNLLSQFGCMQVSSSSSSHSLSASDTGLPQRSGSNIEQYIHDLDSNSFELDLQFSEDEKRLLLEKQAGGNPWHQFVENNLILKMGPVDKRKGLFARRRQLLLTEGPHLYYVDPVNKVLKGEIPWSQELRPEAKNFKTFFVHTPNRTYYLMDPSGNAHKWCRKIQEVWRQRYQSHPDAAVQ
UniProt P42356, whole entry, looked up: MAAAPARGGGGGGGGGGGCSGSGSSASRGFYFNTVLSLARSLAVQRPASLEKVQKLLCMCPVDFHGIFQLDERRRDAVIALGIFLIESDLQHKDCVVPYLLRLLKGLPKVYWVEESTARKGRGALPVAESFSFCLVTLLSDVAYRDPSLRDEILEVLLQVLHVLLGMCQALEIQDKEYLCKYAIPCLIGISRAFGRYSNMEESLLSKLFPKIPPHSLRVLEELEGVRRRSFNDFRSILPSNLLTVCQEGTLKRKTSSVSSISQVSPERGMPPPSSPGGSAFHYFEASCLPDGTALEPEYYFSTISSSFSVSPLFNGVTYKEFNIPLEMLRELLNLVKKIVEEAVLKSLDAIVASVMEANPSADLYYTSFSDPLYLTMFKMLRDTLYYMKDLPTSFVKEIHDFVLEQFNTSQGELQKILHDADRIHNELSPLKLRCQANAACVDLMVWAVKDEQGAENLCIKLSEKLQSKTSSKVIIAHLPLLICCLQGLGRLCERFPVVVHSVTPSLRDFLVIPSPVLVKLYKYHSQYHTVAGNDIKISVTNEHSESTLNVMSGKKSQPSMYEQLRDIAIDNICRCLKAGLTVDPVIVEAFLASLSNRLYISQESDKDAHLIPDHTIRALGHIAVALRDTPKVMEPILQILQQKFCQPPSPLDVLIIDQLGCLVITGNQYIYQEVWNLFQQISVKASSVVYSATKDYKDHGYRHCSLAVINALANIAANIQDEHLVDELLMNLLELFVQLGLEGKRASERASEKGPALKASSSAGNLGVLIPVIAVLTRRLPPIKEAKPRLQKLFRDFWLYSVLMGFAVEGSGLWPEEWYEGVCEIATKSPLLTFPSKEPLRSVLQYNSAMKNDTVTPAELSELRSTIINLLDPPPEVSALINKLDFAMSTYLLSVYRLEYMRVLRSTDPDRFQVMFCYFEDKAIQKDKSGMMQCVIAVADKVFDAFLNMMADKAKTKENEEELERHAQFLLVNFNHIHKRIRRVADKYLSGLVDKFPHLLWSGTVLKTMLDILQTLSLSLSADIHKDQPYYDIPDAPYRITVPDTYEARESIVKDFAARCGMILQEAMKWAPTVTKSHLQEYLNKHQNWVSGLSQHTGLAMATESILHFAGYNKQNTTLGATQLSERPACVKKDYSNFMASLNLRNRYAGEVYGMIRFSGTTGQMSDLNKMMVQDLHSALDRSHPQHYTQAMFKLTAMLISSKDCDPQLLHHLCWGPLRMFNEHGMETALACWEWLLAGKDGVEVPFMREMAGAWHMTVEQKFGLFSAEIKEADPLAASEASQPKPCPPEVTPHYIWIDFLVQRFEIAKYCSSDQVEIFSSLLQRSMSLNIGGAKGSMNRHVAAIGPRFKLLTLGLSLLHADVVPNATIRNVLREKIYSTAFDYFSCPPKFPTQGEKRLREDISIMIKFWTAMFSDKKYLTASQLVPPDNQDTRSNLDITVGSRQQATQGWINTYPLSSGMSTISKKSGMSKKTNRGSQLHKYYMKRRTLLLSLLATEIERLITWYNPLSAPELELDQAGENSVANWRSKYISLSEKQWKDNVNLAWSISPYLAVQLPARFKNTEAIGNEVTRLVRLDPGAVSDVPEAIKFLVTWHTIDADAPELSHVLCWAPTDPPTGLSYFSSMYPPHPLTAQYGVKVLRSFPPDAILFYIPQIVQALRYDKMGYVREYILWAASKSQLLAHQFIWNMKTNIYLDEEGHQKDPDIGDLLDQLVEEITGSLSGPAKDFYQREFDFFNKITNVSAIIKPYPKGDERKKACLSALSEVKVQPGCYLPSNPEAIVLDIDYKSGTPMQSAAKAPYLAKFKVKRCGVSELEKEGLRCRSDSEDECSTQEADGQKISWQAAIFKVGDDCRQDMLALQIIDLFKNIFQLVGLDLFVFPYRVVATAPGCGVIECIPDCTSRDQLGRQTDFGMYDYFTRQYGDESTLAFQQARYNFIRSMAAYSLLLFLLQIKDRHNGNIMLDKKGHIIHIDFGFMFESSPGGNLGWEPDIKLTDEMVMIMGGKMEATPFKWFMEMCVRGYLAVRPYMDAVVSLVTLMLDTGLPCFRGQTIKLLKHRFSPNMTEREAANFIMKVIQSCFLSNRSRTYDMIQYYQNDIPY
UniProt Q9UBF8: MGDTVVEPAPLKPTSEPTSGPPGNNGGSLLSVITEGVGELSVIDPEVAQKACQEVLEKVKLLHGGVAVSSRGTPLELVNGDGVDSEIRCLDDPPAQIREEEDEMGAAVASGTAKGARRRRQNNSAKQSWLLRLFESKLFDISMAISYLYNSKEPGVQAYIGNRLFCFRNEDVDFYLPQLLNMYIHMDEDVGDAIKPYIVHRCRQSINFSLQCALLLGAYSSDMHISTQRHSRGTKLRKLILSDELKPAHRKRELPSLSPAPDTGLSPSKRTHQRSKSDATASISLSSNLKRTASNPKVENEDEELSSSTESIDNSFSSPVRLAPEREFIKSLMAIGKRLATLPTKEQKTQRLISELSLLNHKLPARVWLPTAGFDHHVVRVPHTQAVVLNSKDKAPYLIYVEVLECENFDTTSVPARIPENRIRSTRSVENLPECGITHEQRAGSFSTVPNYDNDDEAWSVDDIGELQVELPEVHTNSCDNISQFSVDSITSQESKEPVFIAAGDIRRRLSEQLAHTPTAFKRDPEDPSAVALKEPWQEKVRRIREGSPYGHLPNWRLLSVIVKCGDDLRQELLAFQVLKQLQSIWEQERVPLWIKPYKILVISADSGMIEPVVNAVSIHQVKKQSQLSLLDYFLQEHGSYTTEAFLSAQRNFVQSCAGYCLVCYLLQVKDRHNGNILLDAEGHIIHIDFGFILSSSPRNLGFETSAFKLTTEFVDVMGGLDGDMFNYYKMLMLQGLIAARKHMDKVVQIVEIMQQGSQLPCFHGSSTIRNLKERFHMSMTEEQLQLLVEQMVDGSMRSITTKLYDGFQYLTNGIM
UniProt Q13131: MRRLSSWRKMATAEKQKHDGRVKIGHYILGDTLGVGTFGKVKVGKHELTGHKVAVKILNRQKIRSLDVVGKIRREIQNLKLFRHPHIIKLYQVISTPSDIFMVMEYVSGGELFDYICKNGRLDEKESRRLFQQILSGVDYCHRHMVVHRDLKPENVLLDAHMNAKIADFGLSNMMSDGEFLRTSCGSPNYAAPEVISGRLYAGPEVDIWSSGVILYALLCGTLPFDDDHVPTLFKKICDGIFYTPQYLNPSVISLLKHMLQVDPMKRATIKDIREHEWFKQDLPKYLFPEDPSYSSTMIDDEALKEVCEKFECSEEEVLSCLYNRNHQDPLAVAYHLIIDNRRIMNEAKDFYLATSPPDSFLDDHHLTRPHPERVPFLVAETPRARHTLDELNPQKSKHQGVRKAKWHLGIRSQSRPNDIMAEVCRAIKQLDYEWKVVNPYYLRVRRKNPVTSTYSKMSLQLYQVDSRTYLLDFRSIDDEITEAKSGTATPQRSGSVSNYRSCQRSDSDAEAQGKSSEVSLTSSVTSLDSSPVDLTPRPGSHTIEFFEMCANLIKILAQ

Experiments:
Assay in all cases: number of time points (of 5) at which kinase-Nluc abundance scored as decreased, DMSO-normalised (count); higher = more persistent destabilization
Details in all cases: K562; 2-18 h
[1] = target: NTRK3 (UniProt Q16288)
[2] = target: PAK4 (UniProt O96013)
[3] = target: PBK (UniProt Q96KB5)
[4] = target: PDGFRB (UniProt P09619)
[5] = target: PDK1 (UniProt Q15118)
[6] = target: PDPK1 (UniProt O15530)
[7] = target: PIK4CA (UniProt P42356)
[8] = target: PIK4CB (UniProt Q9UBF8)
[9] = target: PLK1 (UniProt P53350)
[10] = target: PRKAA1 (UniProt Q13131)

Measured: number of time points

Cc1nc(N)sc1-c1ccnc(Nc2ccc(N3CCOCC3)cc2)n1 (10 µM)
0: all assays above

Cc1ccc(S(=O)(=O)Nc2nc3ccccc3nc2Nc2ccc3nsnc3c2)cc1 [Pilaralisib analogue] (10 µM)
not listed: [6] | [10]
0: all other assays above

Cc1ccc(NC(=O)c2cccc(N(C)C)c2)cc1NC(=O)c1ccc(O)cc1 (10 µM)
0: all assays above

CN1CCN(C2CCN(C(=O)Nc3cc(Oc4ccc(NC(=O)C5(C(=O)Nc6ccc(F)cc6)CC5)c(F)c4)ccn3)CC2)CC1 [Golvatinib] (2.5 µM)
2: [4] | [6]
1: [10]
0: all other assays above

COc1ccc(NC(=O)N2CCN(c3nc(N)nc4c3cnn4C)[C@@H](C)C2)c(C)c1 (10 µM)
not listed: [8]
0: all other assays above

COc1cc(OC)cc(-c2cc3cnc(N)nc3nc2NC(=O)NC(C)(C)C)c1 (10 µM)
not listed: [4]
0: all other assays above

Brc1c(Br)c(Br)c2n[nH]nc2c1Br (10 µM)
0: all assays above

CN(c1ncccc1CNc1nc(Nc2ccc3c(c2)CC(=O)N3)ncc1C(F)(F)F)S(C)(=O)=O (2.5 µM)
not listed: [4]
0: all other assays above

CCC(=O)N1CCN(c2ccc(-n3c(=O)ccc4cnc5ccc(-c6cnc7ccccc7c6)cc5c43)cc2C(F)(F)F)CC1 [Torin 1] (2 µM)
2: [6]
3: [1]
0: all other assays above

Cc1ccc2c(Nc3cccc(OC(F)(F)F)c3)nccc2c1Nc1ncccc1-c1ncnc2[nH]cnc12 (10 µM)
not listed: [4]
0: all other assays above

CC[C@H](CO)Nc1nc(NCc2ccccc2)c2ncn(C(C)C)c2n1 [Seliciclib] (10 µM)
0: all assays above

CN(C)CCOc1ccc(-c2nc(-c3ccncc3)c(-c3ccc4c(c3)CC/C4=N\O)[nH]2)cc1 (10 µM)
0: all assays above

CNC(=O)c1cccc(-c2ccc3c(N4CCOC[C@@H]4C)nc(N4CCOC[C@@H]4C)nc3n2)c1 [Vistusertib] (2.5 µM)
2: [4]
4: [1] | [6] | [7]
3: [8] | [9] | [10]
0: all other assays above

COc1ccc(COc2ccc(Cc3cnc(N)nc3N)cc2OC)cc1 (10 µM)
not listed: [1]
0: all other assays above

O=C(NOC[C@H](O)CO)c1ccc(F)c(F)c1Nc1ccc(I)cc1F (2.5 µM)
0: all assays above

N#CC(=Cc1ccc(O)c(O)c1)C(=O)NCc1ccccc1 (mixture of isomers) (10 µM)
0: all assays above

CCN(CCCOc1ccc2c(Nc3cc(CC(=O)Nc4cccc(F)c4)[nH]n3)ncnc2c1)CCOP(=O)(O)O [Barasertib] (10 µM)
3: [6]
2: [7]
not listed: [4]
0: all other assays above

CC(C)(C)c1cc(NC(=O)Nc2ccc(-c3cn4c(n3)sc3cc(OCCN5CCOCC5)ccc34)cc2)no1 [Quizartinib] (10 µM)
4: [4]
not listed: [1]
0: all other assays above

CC(C)(C)c1nc2c3cc[nH]c(=O)c3c3cc(F)ccc3c2[nH]1 [Pyridone 6] (10 µM)
not listed: [4]
0: all other assays above

CCN(CCO)CCCOc1ccc2c(Nc3cc(CC(=O)Nc4cccc(F)c4)[nH]n3)ncnc2c1 [Barasertib-HQPA] (10 µM)
0: all assays above

Cn1c(=O)n(-c2ccc(C(C)(C)C#N)cc2)c2c3cc(-c4cnc5ccccc5c4)ccc3ncc21 [Dactolisib (Tosylate)] (10 µM)
0: [2] | [3] | [5]
5: [7]
4: [1] | [6]
3: [8] | [9]
1: [10]

CN1CCN(c2ccc(C(=O)Nc3n[nH]c4ccc(Cc5cc(F)cc(F)c5)cc34)c(NC3CCOCC3)c2)CC1 [Entrectinib] (2.5 µM)
not listed: [4]
0: all other assays above

COc1cc(C(=O)NC2CCN(C)CC2)c(F)cc1Nc1ncc2c(n1)N(C1CCCC1)CC(F)(F)C(=O)N2C [TAK-960 (dihydrochloride)] (2.5 µM)
not listed: [9]
0: all other assays above

O=c1oc2c(O)c(O)cc3c(=O)oc4c(O)c(O)cc1c4c23 [Ellagic acid] (10 µM)
not listed: [4]
0: all other assays above

N#C/C(=C\c1ccc(O)c(O)c1)C(=O)NCCCc1ccccc1 (10 µM)
0: all assays above

COc1cc(C(=O)NC2CCN(C)CC2)ccc1Nc1ncc2c(n1)N(C1CCCC1)CC(F)(F)C(=O)N2C (10 µM)
1: [1]
not listed: [9]
0: all other assays above

C=CC(=O)Nc1ccc2ncnc(Nc3cccc(Br)c3)c2c1 (10 µM)
1: [6] | [10]
3: [8]
0: all other assays above

Cc1[nH]c(/C=C2\C(=O)Nc3ccc(S(=O)(=O)Cc4c(Cl)cccc4Cl)cc32)c(C)c1C(=O)N1CCC[C@@H]1CN1CCCC1 (2.5 µM)
not listed: [1]
0: all other assays above

Cc1cccc(Cn2nc(C3CC3)c3c(NC(=O)c4cnc5cc(OCCN6CCN(C)CC6)ccn45)cccc32)n1 (10 µM)
0: all assays above

Cc1cc(C)c(/C=C2\C(=O)Nc3ccccc32)[nH]1 [Semaxinib] (10 µM)
3: [1]
not listed: [4]
0: all other assays above

COc1ccc2c(NC(=O)Nc3cccc(C(F)(F)F)n3)ccnc2c1 (10 µM)
not listed: [4]
0: all other assays above

CC(=O)N1CCN(c2ccc(OCC3COC(Cn4ccnc4)(c4ccc(Cl)cc4Cl)O3)cc2)CC1 (configuration not stated) [Ketoconazole] (2.5 µM)
0: all assays above

C[C@H](CN(C)C)Oc1nc(Nc2cc3cccc(Cl)c3cn2)cnc1C#N (10 µM)
0: all assays above

Cc1c(Cn2c(C)nc3c(C(=O)O)cc(N4CCOCC4)cc32)cccc1C(F)(F)F (10 µM)
not listed: [5] | [10]
0: all other assays above

CC(=O)NCC(=O)N1[C@@H]2CC[C@H]1c1ccc(Nc3ncc(C(F)(F)F)c(NC4CCC4)n3)cc12 (2.5 µM)
3: [1]
4: [6]
not listed: [4]
0: all other assays above

COc1cc2c(Nc3ccc(Br)cc3F)ncnc2cc1OCCn1ccnn1 (10 µM)
not listed: [4]
0: all other assays above

Cc1ccc(F)c(NC(=O)Nc2ccc(-c3cccc4[nH]nc(N)c34)cc2)c1 [Linifanib] (2.5 µM)
not listed: [1]
0: all other assays above

Cc1c[nH]c(/C=C2\C(=O)Nc3ccccc32)c1CCC(=O)O (10 µM)
0: all assays above

CN1CCN(C(=O)c2ccc(-c3ccc4c(C=O)c(O)ccc4c3)s2)CC1 (2.5 µM)
0: all assays above
